# Test results from patent publication US5156956A, “Transgultaminase” (Ajinomoto Co., Inc., priority 1987, dated 1992).
# B1: BTGase: microorganism-derived transglutaminase; in Examples 4-11 the freeze dried product prepared in Example 1 (S. mobaraense, i.e. BTG-1) (protein, UniProt P81453 77-407, looked up)
# Protein-glutamine …: DSDDRVTPPAEPLDRMPDPYRPSYGRAETVVNNYIRKWQQVYSHRDGRKQQMTEEQREWLSYGCVGVTWVNSGQYPTNRLAFASFDEDRFKNELKNGRPRSGETRAEFEGRVAKESFDEEKGFQRAREVASVMNRALENAHDESAYLDNLKKELANGNDALRNEDARSPFYSALRNTPSFKERNGGNHDPSRMKAVIYSKHFWSGQDRSSSADKRKYGDPDAFRPAPGTGLVDMSRDRNIPRSPTSPGEGFVNFDYGWFGAQTEADADKTVWTHGNHYHAPNGSLGAMHVYESKFRNWSEGYSDFDRGAYVITFIPKSWNTAPDKVKQGWP
# Experiments:
# [1] = Kamaboko (steamed fish paste): rheometer and organoleptic evaluation
# [2] = Japanese noodle: tensile test and organoleptic evaluation
# [3] = Sausage: rheometer and organoleptic evaluation
# Method: Physical properties were measured with a rheometer (manufactured by Yamaden Co., Ltd.) and organoleptic evaluation (n=10) was performed. The amount of BTGase added was 1 unit per 1 g of dry pork. The enzyme reaction was carried out at 55° C. for 2 hours. After completion of the reaction, heating was performed at 80° C. for 30 minutes to make a product. As a control, BTGase-free product was used.
# [4] = 20 units per 1 g of dry fish paste, 34° C. 2 h, then 85° C. 30 min
# [5] = 1 U per 1 g of protein, boiled 12 minutes, n = 10
molecule,measurement,setting,value
B1,Breaking Strength,[1]; [4],804 ± 58 g
same,Strain (%),[1]; [4],46.3 ± 1.3%
same,"Organoleptic evaluation, texture against control",[1]; n=10,preferred texture
same,Breaking Strength,[2]; [5],885 ± 48 g
same,Elongation (%),[2]; [5],51 ± 13%
same,"Organoleptic evaluation, texture",[2]; n=15,noodles having a firm texture
same,Elasticity,"[3]; 1 unit per 1 g of dry pork, 55° C. 2 h, then 80° C. 30 min",5.83 × 10^5 dyn.cm^-2
same,"Organoleptic evaluation, texture against control",[3]; n=10,highly viscoelastic and preferable texture
